Laboratory results as given in patent US20070295251A1, “EPSP SYNTHASES: COMPOSITIONS AND METHODS OF USE” (Athenix Corporation, priority 2006, published 2007).

Test system: transgenic maize plants
Test: Transgenic maize plants sprayed with 14 mM glyphosate, resistance scored after two weeks
Format: in vivo
Details: Western blot

Row | Molecule | Expression of EPSPS observed | Expression of EPSPS observed (listed as GRG1 (EVO6))
1 | GRG1(EVO5): GRG1 Q-loop variant from Library 4 (SEQ ID NO:56) (protein, GRG1 variant - GRG1(EVO5)) MKVTIQPGDLTGIIQSPASKSSMQRACAAALVAKGISEIINPGHSNDDKAARDIVSRLGARLEDQPDGSLQITSEGVKPVAPFIECGESGLSSRIFTPLVALSKEEVTIKGSGSLVTRPMDFFDEILPHLGVKVKSNQGKLPLVIQGPLKPADVTVDGSLSSQFLTGLLLAYAAADASDVAIKVTNLKSRPYIDLTLDVMKRFGLKTPENRNYEEFYFKAGNVYDETKMQRYTVEGDWSGGAFLLVAGAIAGPITVRGLDIASTQADKAIVQALMSANAGIAIDAKEIKLHPADLNAFEFDATDCPDLFPPLVALASYCKGETKIKGVSRLAHKESDRGLTLQDEFGKMGVEIHLEGDLMRVIGGKGVKGAEVSSRHDHRIAMACAVAALKAVGETTIEHAEAVNKSYPDFYSDLKQLGGVVSLNHQFNFS | expression and YES | 
2 | GRG1(EVO6): GRG1(EVO5) with N186 to K change (SEQ ID NO:57) (protein, GRG1 variant - GRG1(EVO6)) MKVTIQPGDLTGIIQSPASKSSMQRACAAALVAKGISEIINPGHSNDDKAARDIVSRLGARLEDQPDGSLQITSEGVKPVAPFIECGESGLSSRIFTPLVALSKEEVTIKGSGSLVTRPMDFFDEILPHLGVKVKSNQGKLPLVIQGPLKPADVTVDGSLSSQFLTGLLLAYAAADASDVAIKVTKLKSRPYIDLTLDVMKRFGLKTPENRNYEEFYFKAGNVYDETKMQRYTVEGDWSGGAFLLVAGAIAGPITVRGLDIASTQADKAIVQALMSANAGIAIDAKEIKLHPADLNAFEFDATDCPDLFPPLVALASYCKGETKIKGVSRLAHKESDRGLTLQDEFGKMGVEIHLEGDLMRVIGGKGVKGAEVSSRHDHRIAMACAVAALKAVGETTIEHAEAVNKSYPDFYSDLKQLGGVVSLNHQFNFS | YES | expression
